Earlier results in patent EP0331471A1, “High molecular weight prodrug derivatives of antiinflammatory drugs” (Larsen, Claus Selch, priority 1988, dated 1989).
Like-named read-outs stand apart in the source and are kept apart here.

Settings: pigs, from a previous study (8), cited from earlier work
[1] = i.v., 3.6 mg naproxen equivalents

COc1ccc2cc([C@H](C)C(=O)O)ccc2c1 [NAPROXEN, (+)-2-(6-methoxy-2-napthyl)propionic acid]
AUC [1]: 479 µg·h/mL
Cmax [1]: 35000 ng/mL
Cmax (naproxen in plasma, p.o., 3.6 mg naproxen equivalents): 19700 ng/mL
AUC (naproxen in plasma, p.o.): 439 µg·h/mL
Tmax (naproxen in plasma, p.o.): 2 h
